Reference: patent US7807788
No constants are given. Whether binding was seen depends on the method and setting. Binding calls can cover weak binding; strength is not graded here.

Assays:
[1] = biological target: recombinant E.coli-expressed cynomolgus IL-13 (cynomolgus); assay: sandwich ELISA
[2] = biological target: recombinant E.coli-expressed cynomolgus IL-13 (cynomolgus); assay: sandwich ELISA, CHO supernatant and purified antibody
[3] = biological target: recombinant E.coli-expressed cynomolgus IL-13 (cynomolgus); assay: sandwich ELISA on captured E.coli-expressed cynomolgus IL-13, titrated purified mAb
[4] = biological target: recombinant E.coli-expressed cynomolgus IL-13 (cynomolgus); assay: sandwich ELISA: captured E.coli-expressed cynomolgus IL-13, titrated supernatant of CHO cells transfected with chimaeric 6A1
[5] = biological target: recombinant E.coli-expressed cynomolgus IL-13 (cynomolgus); assay: BIAcore
[6] = biological target: recombinant E.coli-expressed cynomolgus IL-13 (cynomolgus); assay: Western blot after denaturing SDS-PAGE

Binder | binding [1] | binding [2] | binding [3] | binding [4] | binding [5] | binding [6]
chimaeric 6A1 monoclonal antibody (antibody, human IgG1, V domains shown) VH: EIQLQQSVAELVRPGASVRLSCTASGFYIKDTYMHWVIQRPEQGLEWIGTIDPANGNTKYVPKFQGKATITADTSSNTAYLRLSSLTSEDTAIYYCARSIYDDYHYDDYYAMDYWGQGTSVTVSS VL: DVLMTQTPLSLPVSLGDQASISCRSSQNIVHINGNTYLEWYLQKPGQSPKLLIYKISDRFSGVPDRFSGSGSGTDFTLKISRVEAEDLGVYYCFQGSHVPWTFGGGTKLEIK | binds | binds | binds | binds |  | 
humanised anti-IL-13 antibody L1+A1 (antibody, human IgG1, kappa, V domains shown) VH: QVQLVQSGAEVKKPGSSVKVSCKASGFYIKDTYMHWVRQAPGQGLEWMGTIDPANGNTKYVPKFQGRVTITADESTSTAYMELSSLRSEDTAVYYCARSIYDDYHYDDYYAMDYWGQGTLVTVSS VL: DIVMTQSPLSLPVTPGEPASISCRSSQNIVHINGNTYLEWYLQKPGQSPRLLIYKISDRFSGVPDRFSGSGSGTDFTLKISRVEADDVGIYYCFQGSHVPWTFGQGTKLEIKR | binds |  | binds |  |  | 
humanised anti-IL-13 antibody L2+A1 (antibody, human IgG1, kappa, V domains shown) VH: QVQLVQSGAEVKKPGSSVKVSCKASGFYIKDTYMHWVRQAPGQGLEWMGTIDPANGNTKYVPKFQGRVTITADESTSTAYMELSSLRSEDTAVYYCARSIYDDYHYDDYYAMDYWGQGTLVTVSS VL: DIVMTQSPLSLPVTPGEPASISCRSSQNIVHINGNTYLEWYLQKPGQSPRLLIYKISDRFSGVPDRFSGSGSGTDFTLKISRVEADDVGVYYCFQGSHVPWTFGQGTKLEIKR | binds |  | binds |  |  | 
mouse monoclonal antibody 6A1 (antibody, mouse IgG1, V domains shown) VH: EIQLQQSVAELVRPGASVRLSCTASGFYIKDTYMHWVIQRPEQGLEWIGTIDPANGNTKYVPKFQGKATITADTSSNTAYLRLSSLTSEDTAIYYCARSIYDDYHYDDYYAMDYWGQGTSVTVSS VL: DVLMTQTPLSLPVSLGDQASISCRSSQNIVHINGNTYLEWYLQKPGQSPKLLIYKISDRFSGVPDRFSGSGSGTDFTLKISRVEAEDLGVYYCFQGSHVPWTFGGGTKLEIK |  |  |  |  | binds | binds
